According to the supplement of paper PMC10849652:
The other results are listed elsewhere or left out.

Chains of the proteins cited; added tags and fusions are not shown. Lines headed by an entry give the natural chain unless they say otherwise; changes in a name come on top.
UniProt Q7Z6J9: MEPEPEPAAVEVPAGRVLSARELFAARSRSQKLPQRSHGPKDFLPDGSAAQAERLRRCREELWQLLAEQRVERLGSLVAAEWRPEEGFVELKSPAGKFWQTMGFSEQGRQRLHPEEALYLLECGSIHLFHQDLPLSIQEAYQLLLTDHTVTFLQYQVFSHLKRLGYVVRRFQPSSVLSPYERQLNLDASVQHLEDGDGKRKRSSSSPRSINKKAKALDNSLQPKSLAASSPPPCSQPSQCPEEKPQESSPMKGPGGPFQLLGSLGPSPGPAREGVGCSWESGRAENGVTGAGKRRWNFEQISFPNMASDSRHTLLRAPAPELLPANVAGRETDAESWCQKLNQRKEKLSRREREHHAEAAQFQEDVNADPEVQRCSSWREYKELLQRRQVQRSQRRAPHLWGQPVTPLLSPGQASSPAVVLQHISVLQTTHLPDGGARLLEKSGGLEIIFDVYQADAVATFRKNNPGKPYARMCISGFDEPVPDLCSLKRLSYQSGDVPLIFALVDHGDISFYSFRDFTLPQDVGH
UniProt Q7Z4G4: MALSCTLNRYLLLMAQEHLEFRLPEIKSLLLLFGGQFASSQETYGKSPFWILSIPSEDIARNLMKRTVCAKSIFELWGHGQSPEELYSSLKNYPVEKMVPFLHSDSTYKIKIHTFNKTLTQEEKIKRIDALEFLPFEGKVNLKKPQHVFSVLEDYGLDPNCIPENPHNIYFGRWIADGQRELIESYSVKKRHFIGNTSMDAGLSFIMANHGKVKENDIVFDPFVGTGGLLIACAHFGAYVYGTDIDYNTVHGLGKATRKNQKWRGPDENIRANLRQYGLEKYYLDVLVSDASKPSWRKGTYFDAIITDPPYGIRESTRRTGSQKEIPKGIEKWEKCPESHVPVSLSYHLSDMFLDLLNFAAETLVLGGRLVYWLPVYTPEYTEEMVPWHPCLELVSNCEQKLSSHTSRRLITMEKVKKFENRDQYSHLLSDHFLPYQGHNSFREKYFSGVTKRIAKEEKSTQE
UniProt Q15629: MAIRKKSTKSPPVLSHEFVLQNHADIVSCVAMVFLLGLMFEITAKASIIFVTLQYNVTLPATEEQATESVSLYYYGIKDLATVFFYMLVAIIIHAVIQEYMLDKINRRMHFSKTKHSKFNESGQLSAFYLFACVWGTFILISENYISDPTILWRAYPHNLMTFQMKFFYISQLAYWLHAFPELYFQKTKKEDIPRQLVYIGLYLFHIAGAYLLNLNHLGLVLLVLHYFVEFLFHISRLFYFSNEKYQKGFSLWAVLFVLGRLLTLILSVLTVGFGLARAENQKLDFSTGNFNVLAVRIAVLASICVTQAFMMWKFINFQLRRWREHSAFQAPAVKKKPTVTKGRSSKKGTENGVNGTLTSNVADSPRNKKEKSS
UniProt Q15642: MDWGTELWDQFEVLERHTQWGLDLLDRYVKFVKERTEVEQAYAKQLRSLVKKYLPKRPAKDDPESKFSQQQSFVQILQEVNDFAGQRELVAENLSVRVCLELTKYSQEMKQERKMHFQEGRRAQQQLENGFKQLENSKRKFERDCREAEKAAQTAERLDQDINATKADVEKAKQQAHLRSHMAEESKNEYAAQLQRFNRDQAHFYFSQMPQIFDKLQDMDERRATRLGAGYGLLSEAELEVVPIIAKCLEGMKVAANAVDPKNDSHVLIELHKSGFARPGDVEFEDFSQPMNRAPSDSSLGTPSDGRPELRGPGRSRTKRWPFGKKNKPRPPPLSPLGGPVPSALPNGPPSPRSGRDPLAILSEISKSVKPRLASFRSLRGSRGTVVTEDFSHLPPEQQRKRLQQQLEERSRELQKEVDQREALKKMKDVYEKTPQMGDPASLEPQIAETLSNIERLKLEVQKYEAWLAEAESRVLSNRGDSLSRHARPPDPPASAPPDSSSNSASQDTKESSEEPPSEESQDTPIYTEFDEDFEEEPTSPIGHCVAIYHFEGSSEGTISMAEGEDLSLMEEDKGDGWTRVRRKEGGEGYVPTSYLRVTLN
UniProt Q9UL33, whole entry, looked up: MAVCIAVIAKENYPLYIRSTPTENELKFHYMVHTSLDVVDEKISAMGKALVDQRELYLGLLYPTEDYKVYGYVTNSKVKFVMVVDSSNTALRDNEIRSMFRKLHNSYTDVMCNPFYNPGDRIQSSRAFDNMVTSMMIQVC
UniProt Q13049: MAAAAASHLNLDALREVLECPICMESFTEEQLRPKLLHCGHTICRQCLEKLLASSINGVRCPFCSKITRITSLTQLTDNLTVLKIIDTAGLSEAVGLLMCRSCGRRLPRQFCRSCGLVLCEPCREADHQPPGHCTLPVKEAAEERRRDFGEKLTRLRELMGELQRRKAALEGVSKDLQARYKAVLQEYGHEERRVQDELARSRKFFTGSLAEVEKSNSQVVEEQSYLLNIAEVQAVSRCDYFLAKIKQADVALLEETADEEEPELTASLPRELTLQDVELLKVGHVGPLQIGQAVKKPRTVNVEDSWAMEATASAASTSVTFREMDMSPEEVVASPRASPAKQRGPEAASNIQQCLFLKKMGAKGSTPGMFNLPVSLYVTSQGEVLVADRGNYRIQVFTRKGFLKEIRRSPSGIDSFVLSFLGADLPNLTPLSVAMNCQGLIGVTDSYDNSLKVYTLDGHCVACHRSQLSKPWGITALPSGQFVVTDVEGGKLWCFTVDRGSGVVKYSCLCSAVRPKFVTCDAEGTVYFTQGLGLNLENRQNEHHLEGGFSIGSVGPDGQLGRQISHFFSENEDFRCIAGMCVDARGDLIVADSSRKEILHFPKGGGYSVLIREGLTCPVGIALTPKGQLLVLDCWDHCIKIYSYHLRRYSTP
UniProt Q92574: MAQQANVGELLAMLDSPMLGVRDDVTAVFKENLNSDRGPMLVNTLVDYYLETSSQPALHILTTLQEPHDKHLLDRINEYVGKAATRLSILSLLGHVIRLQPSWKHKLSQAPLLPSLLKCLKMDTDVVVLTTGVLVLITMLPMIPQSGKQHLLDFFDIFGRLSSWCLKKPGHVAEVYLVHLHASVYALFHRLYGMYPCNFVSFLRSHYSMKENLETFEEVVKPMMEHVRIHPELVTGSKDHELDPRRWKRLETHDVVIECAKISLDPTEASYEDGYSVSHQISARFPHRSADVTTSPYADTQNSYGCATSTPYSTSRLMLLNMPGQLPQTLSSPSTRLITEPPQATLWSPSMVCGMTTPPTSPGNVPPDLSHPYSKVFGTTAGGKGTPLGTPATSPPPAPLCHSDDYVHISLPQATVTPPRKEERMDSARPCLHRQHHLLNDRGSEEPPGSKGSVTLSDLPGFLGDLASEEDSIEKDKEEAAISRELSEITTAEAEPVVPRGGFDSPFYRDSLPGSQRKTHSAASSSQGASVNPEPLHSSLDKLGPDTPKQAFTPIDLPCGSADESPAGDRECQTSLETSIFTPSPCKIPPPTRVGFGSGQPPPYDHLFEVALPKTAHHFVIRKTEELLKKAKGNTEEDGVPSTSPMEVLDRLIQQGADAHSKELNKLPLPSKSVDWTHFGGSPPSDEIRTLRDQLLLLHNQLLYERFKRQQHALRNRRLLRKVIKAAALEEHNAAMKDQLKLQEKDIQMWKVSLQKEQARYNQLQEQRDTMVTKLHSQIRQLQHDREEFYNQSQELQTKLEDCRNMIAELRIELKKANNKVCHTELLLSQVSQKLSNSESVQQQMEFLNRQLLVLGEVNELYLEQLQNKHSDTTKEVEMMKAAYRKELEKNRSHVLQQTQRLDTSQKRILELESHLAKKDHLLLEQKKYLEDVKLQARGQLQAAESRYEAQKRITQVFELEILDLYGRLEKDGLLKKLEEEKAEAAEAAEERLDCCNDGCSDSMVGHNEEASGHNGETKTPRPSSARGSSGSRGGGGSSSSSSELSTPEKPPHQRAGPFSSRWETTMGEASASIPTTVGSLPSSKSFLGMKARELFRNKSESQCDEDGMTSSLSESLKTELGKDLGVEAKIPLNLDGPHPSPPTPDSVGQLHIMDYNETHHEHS
UniProt O75157: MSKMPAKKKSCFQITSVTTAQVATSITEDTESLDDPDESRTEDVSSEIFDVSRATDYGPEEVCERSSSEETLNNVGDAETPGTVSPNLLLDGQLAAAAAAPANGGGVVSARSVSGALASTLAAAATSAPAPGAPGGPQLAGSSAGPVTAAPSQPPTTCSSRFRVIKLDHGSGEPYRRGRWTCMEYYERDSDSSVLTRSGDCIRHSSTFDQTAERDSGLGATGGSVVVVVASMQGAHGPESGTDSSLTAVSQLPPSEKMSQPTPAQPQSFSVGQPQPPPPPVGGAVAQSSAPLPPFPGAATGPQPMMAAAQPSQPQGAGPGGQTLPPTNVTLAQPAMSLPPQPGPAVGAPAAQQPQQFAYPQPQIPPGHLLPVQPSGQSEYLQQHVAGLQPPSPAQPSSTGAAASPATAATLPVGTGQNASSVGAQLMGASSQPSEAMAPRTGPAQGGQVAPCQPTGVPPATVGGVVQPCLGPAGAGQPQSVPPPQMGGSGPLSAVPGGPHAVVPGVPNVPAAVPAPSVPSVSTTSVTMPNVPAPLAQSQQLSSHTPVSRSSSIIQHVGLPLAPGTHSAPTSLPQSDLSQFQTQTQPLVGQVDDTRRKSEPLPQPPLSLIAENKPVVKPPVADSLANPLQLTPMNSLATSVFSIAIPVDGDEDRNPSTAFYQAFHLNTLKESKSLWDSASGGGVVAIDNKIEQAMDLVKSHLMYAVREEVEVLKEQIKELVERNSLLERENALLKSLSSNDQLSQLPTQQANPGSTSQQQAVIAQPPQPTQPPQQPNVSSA
UniProt A5PLN9: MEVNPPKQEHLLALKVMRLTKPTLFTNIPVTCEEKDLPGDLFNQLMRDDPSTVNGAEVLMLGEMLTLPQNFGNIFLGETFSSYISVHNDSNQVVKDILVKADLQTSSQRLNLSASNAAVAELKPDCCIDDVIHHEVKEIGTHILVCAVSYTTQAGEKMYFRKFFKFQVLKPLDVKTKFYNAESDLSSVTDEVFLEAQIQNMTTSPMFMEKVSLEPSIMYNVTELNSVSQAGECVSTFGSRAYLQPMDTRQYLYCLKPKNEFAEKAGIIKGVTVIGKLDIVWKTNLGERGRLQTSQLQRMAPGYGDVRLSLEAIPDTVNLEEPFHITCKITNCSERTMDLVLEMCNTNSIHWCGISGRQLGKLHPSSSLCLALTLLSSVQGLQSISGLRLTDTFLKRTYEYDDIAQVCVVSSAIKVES
UniProt Q969E8: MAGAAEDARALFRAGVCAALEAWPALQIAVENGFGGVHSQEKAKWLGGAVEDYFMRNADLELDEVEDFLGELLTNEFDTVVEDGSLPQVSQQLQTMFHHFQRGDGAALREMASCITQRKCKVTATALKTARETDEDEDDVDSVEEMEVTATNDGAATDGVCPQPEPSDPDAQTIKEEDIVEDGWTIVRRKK
UniProt Q32P41: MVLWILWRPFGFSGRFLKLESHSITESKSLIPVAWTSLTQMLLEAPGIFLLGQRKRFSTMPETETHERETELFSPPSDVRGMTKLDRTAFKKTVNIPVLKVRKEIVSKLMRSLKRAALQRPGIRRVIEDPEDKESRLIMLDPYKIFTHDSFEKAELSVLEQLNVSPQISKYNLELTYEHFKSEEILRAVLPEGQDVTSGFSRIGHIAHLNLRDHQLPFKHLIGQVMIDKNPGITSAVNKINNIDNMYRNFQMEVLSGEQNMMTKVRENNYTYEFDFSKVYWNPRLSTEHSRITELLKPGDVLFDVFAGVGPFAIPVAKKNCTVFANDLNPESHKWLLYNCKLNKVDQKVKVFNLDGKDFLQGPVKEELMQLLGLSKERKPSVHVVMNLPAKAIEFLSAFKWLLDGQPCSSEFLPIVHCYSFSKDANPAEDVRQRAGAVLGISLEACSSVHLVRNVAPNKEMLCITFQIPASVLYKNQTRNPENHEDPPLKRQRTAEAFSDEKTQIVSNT
UniProt Q8N5M4: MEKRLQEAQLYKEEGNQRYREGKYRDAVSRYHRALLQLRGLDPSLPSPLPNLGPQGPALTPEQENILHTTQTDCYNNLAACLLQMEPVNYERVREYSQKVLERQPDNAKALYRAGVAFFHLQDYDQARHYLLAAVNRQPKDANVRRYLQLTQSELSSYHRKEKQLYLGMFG
UniProt Q9Y4K3: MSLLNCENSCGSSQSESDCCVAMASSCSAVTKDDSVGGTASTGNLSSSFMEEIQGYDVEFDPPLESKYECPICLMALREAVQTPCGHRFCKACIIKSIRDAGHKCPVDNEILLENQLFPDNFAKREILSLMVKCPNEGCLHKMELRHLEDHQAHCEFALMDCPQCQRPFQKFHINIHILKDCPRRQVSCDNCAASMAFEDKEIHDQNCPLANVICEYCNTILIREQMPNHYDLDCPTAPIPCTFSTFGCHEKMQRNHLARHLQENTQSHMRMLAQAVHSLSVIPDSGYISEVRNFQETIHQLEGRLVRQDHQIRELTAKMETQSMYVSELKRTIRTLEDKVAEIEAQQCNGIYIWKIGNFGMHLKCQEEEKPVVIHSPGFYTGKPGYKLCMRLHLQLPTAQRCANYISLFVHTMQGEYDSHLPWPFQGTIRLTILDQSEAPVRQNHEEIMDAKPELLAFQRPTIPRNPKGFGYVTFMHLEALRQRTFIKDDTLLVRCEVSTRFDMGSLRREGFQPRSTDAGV

These targets were tested with CC(=O)c1cnc2ccc(-c3cc(Cl)c(O)c(Cl)c3)nc2c1N[C@H]1CC[C@H](CN(C)C)CC1 (assay: log2 fold change, soluble protein after heating vs DMSO (PISA); higher = thermal stabilisation; K562 lysate, 10 uM; active = over 0.2 and 3.5 SD of the protein, either way, in both replicates (recomputed)).
How it was run: (§1)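 Values give the log-two fold change in thermal stability against solvent controls, from duplicates. Crude K562 extract at 1 mg/mL protein, made by dounce homogenisation in PBS pH 7.4 with 1 mM MgCl2, was treated with 10 μM compound for 30 min. After 3 min heating across 48°C-58°C, aliquots were pooled, adjusted to 0.5% NP-40 at 4°C and centrifuged at 21,000xg for 90 min. The supernatant was measured by TMTpro 16plex LC-MS/MS with channel sums equalised.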
For TRRAP (UniProt Q9Y4A5), the log2 fold change was inactive: -0.009. For TSEN54 (UniProt Q7Z6J9), the log2 fold change was inactive: -0.02. For TRAPPC2 isoform 3 (UniProt P0DI81), the log2 fold change was inactive: -0.031. TSC2 isoform 4 (UniProt P49815) was tested, and the log2 fold change was inactive: 0.013. TRAPPC6A isoform 2 (UniProt O75865) was tested, and the log2 fold change was inactive: -0.011. With TRMT11 (UniProt Q7Z4G4) the log2 fold change was inactive: 0.005. For TTC4 (UniProt O95801), the log2 fold change was inactive: 0.015. For TRAM1 (UniProt Q15629), the log2 fold change was inactive: 0.003. In the case of TRIP10 isoform 2 (UniProt Q15642), the log2 fold change is reported as inactive: 0.033. For TRMT61A (UniProt Q96FX7), the log2 fold change was inactive: 0.012. TRAPPC2L (UniProt Q9UL33) was tested, and the log2 fold change was inactive: -0.032. With TTC12 isoform 2 (UniProt Q9H892) the log2 fold change was inactive: -0.073. For TSPO (UniProt P30536), the log2 fold change was inactive: 0.002. In the case of TTC5 (UniProt Q8N0Z6), the log2 fold change is reported as inactive: 0.007. With TRIM32 (UniProt Q13049) the log2 fold change was inactive: -0.01. For TRAPPC11 (UniProt Q7Z392), the log2 fold change was inactive: -0.025. In the case of TSC1 (UniProt Q92574), the log2 fold change is reported as inactive: 0.019. With TRIM33 isoform 2 (UniProt Q9UPN9) the log2 fold change was inactive: 0.006. For TRNT1 (UniProt Q96Q11), the log2 fold change was inactive: -0.003. With TRMT61B (UniProt Q9BVS5) the log2 fold change was inactive: -0.018. For TRIM5 (UniProt Q9C035), the log2 fold change was inactive: 0.116. With TSPAN13 (UniProt O95857) the log2 fold change was inactive: -0.001. For TRIM25 (UniProt Q14258), the log2 fold change was inactive: -0.001. For TRPC4AP (UniProt Q8TEL6), the log2 fold change was inactive: 0.013. In the case of TSC22D2 (UniProt O75157), the log2 fold change is reported as inactive: 0.02. With TRIM11 (UniProt Q96F44) the log2 fold change was inactive: 0.05. TSNAX (UniProt Q99598) was tested, and the log2 fold change was inactive: 0.002. TRAPPC13 isoform 4 (UniProt A5PLN9) was tested, and the log2 fold change was inactive: 0.002. For TRIP13 (UniProt Q15645), the log2 fold change was inactive: -0.013. In the case of TSR2 (UniProt Q969E8), the log2 fold change is reported as inactive: -0.026. In the case of TRMT5 (UniProt Q32P41), the log2 fold change is reported as inactive: -0.029. In the case of TTC9C (UniProt Q8N5M4), the log2 fold change is reported as inactive: 0.011. For TRAF6 (UniProt Q9Y4K3), the log2 fold change was inactive: 0.014.

What follows are targets tested with CC(C)(C)Cn1c(N)nc2ccc(-c3[nH]c(C(C)(C)C)nc3-c3ccc(F)cc3)nc21 [ralimetinib] in the same assay as above.
How it was run: as §1
For TRRAP (UniProt Q9Y4A5), the log2 fold change was inactive: 0.045. In the case of TSEN54 (UniProt Q7Z6J9), the log2 fold change is reported as inactive: 0.059. In the case of TRAPPC2 isoform 3 (UniProt P0DI81), the log2 fold change is reported as inactive: 0. For TSC2 isoform 4 (UniProt P49815), the log2 fold change was inactive: 0.065. TRAPPC6A isoform 2 (UniProt O75865) was tested, and the log2 fold change was inactive: -0.027. With TRMT11 (UniProt Q7Z4G4) the log2 fold change was inactive: 0.009. With TTC4 (UniProt O95801) the log2 fold change was inactive: 0.005. In the case of TRAM1 (UniProt Q15629), the log2 fold change is reported as inactive: 0.048. With TRIP10 isoform 2 (UniProt Q15642) the log2 fold change was inactive: 0.095. With TRMT61A (UniProt Q96FX7) the log2 fold change was inactive: -0.078. With TRAPPC2L (UniProt Q9UL33) the log2 fold change was inactive: 0.013. In the case of TTC12 isoform 2 (UniProt Q9H892), the log2 fold change is reported as inactive: 0.053. For TSPO (UniProt P30536), the log2 fold change was inactive: 0.062. For TTC5 (UniProt Q8N0Z6), the log2 fold change was inactive: 0.017. TRIM32 (UniProt Q13049) was tested, and the log2 fold change was inactive: 0.009. For TRAPPC11 (UniProt Q7Z392), the log2 fold change was inactive: 0.059. For TSC1 (UniProt Q92574), the log2 fold change was inactive: 0.065. For TRIM33 isoform 2 (UniProt Q9UPN9), the log2 fold change was inactive: 0.024. In the case of TRNT1 (UniProt Q96Q11), the log2 fold change is reported as inactive: 0.02. TRMT61B (UniProt Q9BVS5) was tested, and the log2 fold change was inactive: 0.002. With TRIM5 (UniProt Q9C035) the log2 fold change was inactive: -0.042. TSPAN13 (UniProt O95857) was tested, and the log2 fold change was inactive: -0.048. For TRIM25 (UniProt Q14258), the log2 fold change was inactive: -0.013. For TRPC4AP (UniProt Q8TEL6), the log2 fold change was inactive: 0.027. In the case of TSC22D2 (UniProt O75157), the log2 fold change is reported as inactive: 0.025. TRIM11 (UniProt Q96F44) was tested, and the log2 fold change was inactive: -0.009. For TSNAX (UniProt Q99598), the log2 fold change was inactive: -0.021. For TRAPPC13 isoform 4 (UniProt A5PLN9), the log2 fold change was inactive: -0.017. For TRIP13 (UniProt Q15645), the log2 fold change was inactive: 0.039. In the case of TSR2 (UniProt Q969E8), the log2 fold change is reported as inactive: 0.004. In the case of TRMT5 (UniProt Q32P41), the log2 fold change is reported as inactive: 0.02. For TTC9C (UniProt Q8N5M4), the log2 fold change was inactive: 0.026. TRAF6 (UniProt Q9Y4K3) was tested, and the log2 fold change was inactive: 0.01.

What follows are targets tested with CC(C)(O)CC(=O)NCCn1ccc2ncnc(Nc3ccc(Oc4cccc(C(F)(F)F)c4)c(Cl)c3)c21 in the same assay as above.
How it was run: as §1
For TRRAP (UniProt Q9Y4A5), the log2 fold change was inactive: -0.036. For TSEN54 (UniProt Q7Z6J9), the log2 fold change was inactive: -0.036. In the case of TRAPPC2 isoform 3 (UniProt P0DI81), the log2 fold change is reported as inactive: 0.015. For TSC2 isoform 4 (UniProt P49815), the log2 fold change was inactive: -0.016. For TRAPPC6A isoform 2 (UniProt O75865), the log2 fold change was inactive: -0.037. With TRMT11 (UniProt Q7Z4G4) the log2 fold change was inactive: 0.002. With TTC4 (UniProt O95801) the log2 fold change was inactive: 0.011. TRAM1 (UniProt Q15629) was tested, and the log2 fold change was inactive: -0.189. For TRIP10 isoform 2 (UniProt Q15642), the log2 fold change was inactive: -0.059. With TRMT61A (UniProt Q96FX7) the log2 fold change was inactive: 0. For TRAPPC2L (UniProt Q9UL33), the log2 fold change was inactive: -0.043. For TTC12 isoform 2 (UniProt Q9H892), the log2 fold change was inactive: 0.128. For TSPO (UniProt P30536), the log2 fold change was inactive: -0.037. In the case of TTC5 (UniProt Q8N0Z6), the log2 fold change is reported as inactive: 0.001. For TRIM32 (UniProt Q13049), the log2 fold change was inactive: -0.094. TRAPPC11 (UniProt Q7Z392) was tested, and the log2 fold change was inactive: 0.004. TSC1 (UniProt Q92574) was tested, and the log2 fold change was inactive: 0.009. In the case of TRIM33 isoform 2 (UniProt Q9UPN9), the log2 fold change is reported as inactive: 0.022. With TRNT1 (UniProt Q96Q11) the log2 fold change was inactive: -0.01. In the case of TRMT61B (UniProt Q9BVS5), the log2 fold change is reported as inactive: -0.04. For TRIM5 (UniProt Q9C035), the log2 fold change was inactive: 0.015. TSPAN13 (UniProt O95857) was tested, and the log2 fold change was inactive: -0.044. For TRIM25 (UniProt Q14258), the log2 fold change was inactive: 0.055. TRPC4AP (UniProt Q8TEL6) was tested, and the log2 fold change was inactive: -0.029. With TSC22D2 (UniProt O75157) the log2 fold change was inactive: 0.021. TRIM11 (UniProt Q96F44) was tested, and the log2 fold change was inactive: -0.049. For TSNAX (UniProt Q99598), the log2 fold change was inactive: 0.009. TRAPPC13 isoform 4 (UniProt A5PLN9) was tested, and the log2 fold change was inactive: -0.028. In the case of TRIP13 (UniProt Q15645), the log2 fold change is reported as inactive: 0.023. TSR2 (UniProt Q969E8) was tested, and the log2 fold change was inactive: -0.039. For TRMT5 (UniProt Q32P41), the log2 fold change was inactive: 0.024. With TTC9C (UniProt Q8N5M4) the log2 fold change was inactive: -0.047. For TRAF6 (UniProt Q9Y4K3), the log2 fold change was inactive: -0.009.
